Some of the results follow. Further columns of the screen follow, without active or inactive calls. Most of these compounds were active or inconclusive in the main read-out, so they are no random draw. The note in brackets gives the kind of curve behind each potency; many fits are weak.
Experiment: qHTS Assay to Find Inhibitors of Chronic Active B-Cell Receptor Signaling
Details: ABC-DLBCL IkBa-CBG/CBR reporter, luminescence ratio (green luciferase fused to IkBa over red control in TMD8 lymphoma cells), 4 h
Outline: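 TMD8 ABC-DLBCL cells carrying doxycycline-inducible green luciferase fused to IkappaBalpha plus unfused red luciferase were exposed to compounds (up to 46 uM) for 4 hrs at 37C. Activity came from the overlap-corrected green/red luminescence ratio.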

[1] = measured here: CBR red luminescence, cell number
[2] = measured here: IkBa-CBG green luminescence

Structure (SMILES)	AC50 [1]	AC50 [2]
O=c1cc(CSc2nc3ccccc3[nH]2)c2ccccc2[nH]1	13 µM [rising, partial curve, poor fit]	23.1 µM [falling, partial curve, poor fit]
Cc1ccc(C2(C)NC(=O)N(CC(=O)N3CCN(S(=O)(=O)c4cccc(F)c4)CC3)C2=O)cc1 (configuration not stated)	0.501 µM [rising, full curve, poor fit]	–
CCCc1nnc2n1N=C(c1ccc(OC)c(OC)c1)CS2	–	9.2 µM [falling, partial curve]
CCS(=O)(=O)c1ncc(Cl)c(C(=O)NCc2ccc(OC)cc2)n1	35.5 µM [falling, single point]	5.62 µM [falling, single point]
Cc1ccc(O)c(C=Nc2cc(C)ccc2O)c1	20.6 µM [rising, partial curve, poor fit]	–
COc1ccc(C(=O)NCCc2c[nH]c3ccccc23)cc1S(=O)(=O)N1CCCCC1C (configuration not stated)	0.259 µM [falling, single point]	–
COc1cc2c(cc1OC)C(C(=O)N1CCCC1)C(c1ccccc1F)N(C)C2=O (configuration not stated)	32.6 µM [falling, single point]	–
N#CCC(=O)N/N=C\c1cccc(OC/C=C/c2ccccc2)c1	10 µM [falling, partial curve, poor fit]	–
Cc1cccc(-c2noc(CN(C(=O)c3ccc(Br)o3)C(C)C)n2)c1	0.092 µM [rising, full curve, poor fit]	–
CC(C)CCn1c(Sc2nc3ccccc3s2)nc2c1c(=O)[nH]c(=O)n2C	20 µM [falling, single point]	–
C=CCn1c(SCc2ccc3nonc3c2)nnc1-c1cccs1	6.51 µM [falling, single point]	–
O=S(=O)(NC12CC3CC(CC(C3)C1)C2)c1ccc(F)cc1	20.6 µM [falling, partial curve]	–
Nc1cc(S(=O)(=O)c2ccc(O)c(N)c2)ccc1O	11.2 µM [rising, partial curve]	–
Nc1n[nH]c2c1C1(CCCCC1)Cc1ccccc1-2	12.6 µM [falling, partial curve, poor fit]	–
C(=N\Nc1nc2ccccc2[nH]1)/c1c[nH]c2ccccc12	8.2 µM [falling, partial curve]	6.51 µM [falling, partial curve, poor fit]
CC(C)[C@H](NC(=O)N1CCn2c1nc1ccccc12)C(=O)N[C@H](Cc1ccccc1)C(=O)O	22.4 µM [falling, single point]	–
CC(=O)c1ccc(NC(=O)C(C)Sc2nnnn2C)cc1 (configuration not stated)	3.98 µM [rising, partial curve, poor fit]	–
CC1=NN(c2ccc(C(=O)O)c(N)c2)C(=O)C1	12.6 µM [falling, partial curve, poor fit]	–
CC(=O)N(c1nnc(-c2cccc(C)c2)s1)C1CCCC1	5.01 µM [rising, full curve]	–
Cc1ccc(C(=O)N(CCC2=CCCCC2)c2c(N)n(Cc3ccccc3)c(=O)[nH]c2=O)o1	10.3 µM [falling, single point]	–
CCOc1ncccc1C(=O)OCC(=O)c1ccc(OC)c(OC)c1	11.2 µM [falling, partial curve]	–

Structure (SMILES)	AC50 [1]	AC50 [2]
Cc1c(C(=O)N(C)Cc2ccccc2)oc2c(Cl)cccc12	35.5 µM [rising, single point]	–
CCOC(=O)N1CCN(Cc2ccc(O)c3ncccc23)CC1	35.5 µM [rising, single point]	–
O=C(Nc1cccnc1)c1ccc(Cl)c(S(=O)(=O)N2CCCCCC2)c1	20.6 µM [falling, partial curve, poor fit]	–
CCn1ncc(C2=NOC(C(=O)NCC(C)C)C2)c1C (configuration not stated)	0.092 µM [rising, full curve, poor fit]	–
Cc1csc(CNC(=O)CC2C(=O)NCCN2Cc2ccc(F)cc2Cl)n1 (configuration not stated)	3.98 µM [falling, full curve, poor fit]	–
Nc1ncnc(NCc2ccccc2)c1[N+](=O)[O-]	6.51 µM [rising, single point]	–
COc1cc(OC)c2c(-c3ccccc3)cc(=O)oc2c1C(CC(=O)N1CCN(c2ccccc2)CC1)c1ccc2c(c1)OCO2 (configuration not stated)	6.31 µM [rising, single point]	–
CCCn1cc(NC(=O)C2CC(c3cccc(Br)c3)=NO2)cn1 (configuration not stated)	1.16 µM [rising, full curve, poor fit]	–
CCc1ccc(NC(=O)CSC2=C(C#N)C(c3ccco3)C3=C(CCCC3=O)N2)cc1 (configuration not stated)	12.6 µM [falling, single point]	–
COc1cccc(Nc2ncnc3ccccc23)c1	20.6 µM [falling, single point]	–
CN(C(=O)c1ccccc1Cl)C1CCCCC1	0.259 µM [falling, full curve, poor fit]	–
COc1ccc(Cl)cc1NC(=O)Cn1nnc(C(=O)NCCc2ccc(OC)c(OC)c2)c1N	6.31 µM [rising, single point]	–
Cc1ccc(N2C(=O)C3C4C=CC(C4)C3C2=O)cc1 (configuration not stated)	35.5 µM [rising, partial curve, poor fit]	–
CCN1C(=O)/C(=C2\SC(=S)N(CCCOC)C2=O)c2ccccc21	3.55 µM [falling, partial curve, poor fit]	–
O=C(CN1CCCCCC1)N/N=C/c1ccc(Cl)c(Cl)c1	2.59 µM [rising, partial curve, poor fit]	–
Cc1c(Cl)cccc1NC(=O)NC1CCCCC1	6.31 µM [rising, single point]	–
O=C(Nc1ccccc1)Nc1nccs1	35.5 µM [falling, single point]	–
Cc1n[nH]c(=O)n1-c1ccc(Oc2ccccc2)cc1	17.8 µM [rising, partial curve, poor fit]	–
O=C(CSc1nnc(CNC(=O)c2c(F)cccc2F)o1)NCc1ccccc1Cl	0.112 µM [falling, full curve, poor fit]	–
O=C1c2cccc(OCC(=O)N3CCCc4ccccc43)c2CCN1Cc1cccnc1	35.5 µM [falling, single point]	–
c1ccc(-c2nc(NCCCn3ccnc3)c3oc4ccccc4c3n2)cc1	14.1 µM [falling, partial curve]	–

Structure (SMILES)	AC50 [1]	AC50 [2]
COc1ccc(-c2c(C#N)sc(C(N)=O)c2-c2ccc(OC)cc2)cc1	31.6 µM [falling, single point]	15.8 µM [rising, partial curve, poor fit]
Cc1cccc(OCC(=O)N(Cc2ccc(N(C)C)cc2)C2CCS(=O)(=O)C2)c1 (configuration not stated)	35.5 µM [falling, single point]	–
O=C(CSc1ncnc2c1oc1ccccc12)N1CCCc2ccccc21	0.731 µM [rising, full curve, poor fit]	–
COCCN(C(=O)COC(=O)c1c(-c2ccccc2)noc1C)c1c(N)n(Cc2ccccc2)c(=O)[nH]c1=O	11.2 µM [falling, partial curve, poor fit]	–
CCOC(=O)c1sc2nc(CC(=O)OC)nc(NCCN(CC)CC)c2c1C	29.1 µM [falling, partial curve, poor fit]	–
CC(C)Cc1cc(C(=O)Nc2ccc3c(c2)OCO3)no1	16.4 µM [falling, single point]	–
O=C(Nc1ccccc1)Nc1ccc2nnsc2c1	10 µM [falling, partial curve, poor fit]	–
COc1ccc(C2CC(c3ccccc3)=NN2C(=O)COC(=O)c2cccc(N)c2)cc1 (configuration not stated)	3.66 µM [falling, single point]	–
Cc1nc(/N=C(\N)NC(=O)NC2CCCCC2)nc2ccccc12	14.1 µM [falling, single point]	–
Cc1ccc(C(=O)Cn2c(=N)n(N)c3ccccc32)cc1	31.6 µM [falling, partial curve, poor fit]	–
N#CNC(=Nc1ccccc1F)SCc1ccc(C(=O)O)cc1	35.5 µM [falling, single point]	–
CC1=CC(C)(C)N2C(=O)C3(NCCc4c3[nH]c3ccccc43)c3cc(C)cc1c32 (configuration not stated)	35.5 µM [falling, single point]	–
Cc1cc(-c2ccc([N+](=O)[O-])cc2)nc2ccccc12	11.2 µM [rising, partial curve]	–
CC(C)NC(=O)CC1OC(=O)c2ccccc21 (configuration not stated)	7.31 µM [rising, partial curve, poor fit]	–
CCCCCCNc1c(C(=O)OCC)c(=O)[nH]c2ccccc12	28.2 µM [falling, single point]	–
COc1cccc(NC(=O)CNC(=O)c2ccc([N+](=O)[O-])cc2)c1	35.5 µM [rising, single point]	–
O=C(COc1ccc([N+](=O)[O-])cc1)N/N=C/c1ccccn1	5.62 µM [rising, full curve, poor fit]	–
O=C(c1cccc(C(F)(F)F)c1)C1CCCN(C(=O)CN2CCOC2=O)C1 (configuration not stated)	20 µM [rising, single point]	–
COc1ccc(NC(=O)CSc2nc(N)c(C(=O)Nc3ccc(N(C)C)cc3)s2)cc1	–	14.6 µM [falling, partial curve, poor fit]
Cc1nc(-c2cccc(NC(=O)c3cccs3)c2)cs1	29.1 µM [falling, single point]	–
O=C(c1ccc(-c2ccccc2Cl)o1)N1CCC1	3.66 µM [rising, partial curve, poor fit]	–

Quoted at random: 4 entries already listed, in no set order.
Structure (SMILES)	AC50 [1]	AC50 [2]
Cc1cccc(OCC(=O)N(Cc2ccc(N(C)C)cc2)C2CCS(=O)(=O)C2)c1 (configuration not stated)	35.5 µM [falling, single point]	–
N#CNC(=Nc1ccccc1F)SCc1ccc(C(=O)O)cc1	35.5 µM [falling, single point]	–
O=C(CSc1ncnc2c1oc1ccccc12)N1CCCc2ccccc21	0.731 µM [rising, full curve, poor fit]	–
Cc1cc(-c2ccc([N+](=O)[O-])cc2)nc2ccccc12	11.2 µM [rising, partial curve]	–

Single records, from the list above.
O=C(c1ccc(-c2ccccc2Cl)o1)N1CCC1 as listed: AC50 [1]: 3.66 µM [rising, partial curve, poor fit]
CC1=CC(C)(C)N2C(=O)C3(NCCc4c3[nH]c3ccccc43)c3cc(C)cc1c32 (configuration not stated) as listed: AC50 [1]: 35.5 µM [falling, single point]
